Experimental data from patent US20090050143A1, “MEDICINAL FORMULATION CONTAINER WITH A TREATED METAL SURFACE” (priority 2006, published 2009).

Assay: Surface chemical composition measurement (XPS) of aluminum oxide powder after exposure to drug solution
Format: physicochemical
Details: percentage of aluminum oxide powder remaining chemically treated after exposure to drug solution

## CCCCCCCCCCCCCCCCP(=O)(O)O [A3, 1-phosphonohexadecane]
  % AO treated-final: 100%

## O=C(O)CCCCCCCCCCC(F)(F)C(F)(F)C(F)(F)C(F)(F)F [A4, n-C4F9—(CH2)10—COOH]
  % AO treated-final: 100%

## O=P(O)(O)CCCCCCCCCCCC(F)(F)C(F)(F)C(F)(F)C(F)(F)F [A1, n-C4F9—(CH2)11—PO3H2]
  % AO treated-final: 100%

## O=C(O)C(F)(F)C(F)(F)C(F)(F)F [FC-23, perfluorobutyric acid]
  % AO treated-final: 100%

## CC(C)CCCC(C)CCCC(C)CCCC(C)CCC(=O)O (stereo not drawn) [A5, Phytanyl carboxylic acid]
  % AO treated-final: 100%

## CC(C)CCCC(C)CCCC(C)CCCC(C)CCP(=O)(O)O (stereo not drawn) [A2, 1-phosphono-3,7,11,15-tetramethylhexadecane]
  % AO treated-final: 100%
